Test results reported in the supplement of paper PMC6078165.

System: MDAMB468
Assay: relative JC-1 red fluorescence (viability) vs pre-drug, coculture with fibroblast (fraction); higher = more viable cancer cells
Method: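 JC-1 labelled TNBC cells cocultured 1:1 (1,500 cells each) with CellTrace Violet stained primary or stromal fibroblasts in 384-well plates in FluoroBrite medium, treated with one of 42 anticancer drugs at 0.1, 1, 10 or 100 uM. JC-1 red fluorescence (mitochondrial integrity in cancer cells only) was read by plate reader every 8 h for 72 h. Values are normalised to each well's pre-drug value. The stock of one drug was tenfold lower, so its dose labels may be too high.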

CC(C)C[C@H](NC(=O)[C@H](Cc1ccccc1)NC(=O)c1cnccn1)B(O)O [Bortezomib]
relative JC-1 red fluorescence
Details	8 h	16 h	24 h	32 h	40 h	48 h	56 h	64 h	72 h
0.1 µM, coculture fibroblast: C12385	0.873	0.837	0.834	0.806	0.789	0.845	0.843	0.877	0.905
0.1 µM, coculture fibroblast: H6013	0.858	0.875	0.845	0.826	0.879	0.923	0.8466	0.881	0.878
0.1 µM, coculture fibroblast: H6019	0.82	0.77	0.808	0.835	0.865	0.89	0.871	0.852	0.848
0.1 µM, coculture fibroblast: H6076	0.8997	0.896	0.81	0.819	0.768	0.784	0.776	0.78	0.837
0.1 µM, coculture fibroblast: H6231	0.81	0.867	0.771	0.804	0.731	0.737	0.724	0.714	0.757
0.1 µM, coculture fibroblast: HADF	0.859	0.849	0.812	0.789	0.8106	0.8288	0.8017	0.82	0.748
0.1 µM, coculture fibroblast: HCFa	0.834	0.772	0.6948	0.658	0.67	0.6952	0.674	0.661	0.602
0.1 µM, coculture fibroblast: HCPF	0.8342	0.89915	0.783	0.774	0.691	0.666	0.632	0.63	0.66
0.1 µM, coculture fibroblast: HHSteC	0.8766	0.831	0.779	0.732	0.743	0.77	0.718	0.702	0.644
0.1 µM, coculture fibroblast: HMF	0.82	0.897	0.7617	0.749	0.669	0.6667	0.656	0.66	0.696
0.1 µM, coculture fibroblast: HPFa	0.867	0.839	0.818	0.766	0.803	0.832	0.792	0.796	0.726
0.1 µM, coculture fibroblast: HUF	0.893	0.784	0.735	0.693	0.666	0.701	0.688	0.705	0.707
0.1 µM, coculture fibroblast: Hs5	0.9506	0.94	0.819	0.8	0.726	0.704	0.697	0.678	0.724
0.1 µM, coculture fibroblast: Hs27A	0.832	0.888	0.852	0.866	0.859	0.878	0.852	0.856	0.774
0.1 µM, coculture fibroblast: Hs343T	0.836	0.886	0.744	0.749	0.686	0.671	0.66	0.679	0.707
0.1 µM, coculture fibroblast: WS1	0.861	0.78	0.746	0.712	0.698	0.734	0.746	0.77	0.804
1 µM, coculture fibroblast: C12385	0.8469	0.754	0.544	0.444	0.388	0.39	0.36	0.354	0.357
1 µM, coculture fibroblast: H6013	0.827	0.735	0.674	0.652	0.658	0.662	0.644	0.644	0.574
1 µM, coculture fibroblast: H6019	0.779	0.568	0.537	0.511	0.494	0.504	0.486	0.486	0.484
1 µM, coculture fibroblast: H6076	0.886	0.861	0.744	0.738	0.667	0.685	0.663	0.657	0.75
1 µM, coculture fibroblast: H6231	0.8016	0.8996	0.718	0.635	0.541	0.521	0.472	0.448	0.457
1 µM, coculture fibroblast: HADF	0.828	0.764	0.633	0.558	0.515	0.495	0.462	0.463	0.402
1 µM, coculture fibroblast: HCFa	0.81103	0.669	0.5849	0.5401	0.517	0.523	0.496	0.471	0.4045
1 µM, coculture fibroblast: HCPF	0.82326	0.9031	0.669	0.685	0.601	0.577	0.545	0.534	0.537
1 µM, coculture fibroblast: HHSteC	0.859	0.757	0.681	0.641	0.626	0.626	0.567	0.544	0.479
1 µM, coculture fibroblast: HMF	0.8003	0.865	0.671	0.66	0.569	0.553	0.522	0.514	0.534
1 µM, coculture fibroblast: HPFa	0.903	0.8364	0.754	0.6942	0.675	0.676	0.617	0.602	0.525
1 µM, coculture fibroblast: HUF	0.905	0.775	0.599	0.52	0.479	0.468	0.439	0.436	0.423
1 µM, coculture fibroblast: Hs5	0.983	0.873	0.698	0.625	0.526	0.493	0.468	0.444	0.48
1 µM, coculture fibroblast: Hs27A	0.83	0.733	0.721	0.712	0.66	0.637	0.596	0.574	0.502
1 µM, coculture fibroblast: Hs343T	0.859	0.936	0.684	0.601	0.475	0.451	0.417	0.417	0.426
1 µM, coculture fibroblast: WS1	0.833	0.678	0.529	0.467	0.421	0.406	0.392	0.389	0.385

Values are relative to the signal before dosing, not to a vehicle control; the signal also falls without drug.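 Fibroblast labels denote human fibroblasts, mainly primary ones from uterus (C12385, HUF), lung (H6013), bone (Hs27A), adrenal (HADF) and skin (WS1), plus mammary HMF and breast cancer-associated Hs343T. Cancer cells are basal-like or mesenchymal-like triple-negative breast cancer lines. A hit is a response shift exceeding 3x replicate standard deviation. The tissue of the other fibroblasts is not given here.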
